Protein sequences, listed by entry. Tags and fused reporters are not part of them.
UniProt Q01939: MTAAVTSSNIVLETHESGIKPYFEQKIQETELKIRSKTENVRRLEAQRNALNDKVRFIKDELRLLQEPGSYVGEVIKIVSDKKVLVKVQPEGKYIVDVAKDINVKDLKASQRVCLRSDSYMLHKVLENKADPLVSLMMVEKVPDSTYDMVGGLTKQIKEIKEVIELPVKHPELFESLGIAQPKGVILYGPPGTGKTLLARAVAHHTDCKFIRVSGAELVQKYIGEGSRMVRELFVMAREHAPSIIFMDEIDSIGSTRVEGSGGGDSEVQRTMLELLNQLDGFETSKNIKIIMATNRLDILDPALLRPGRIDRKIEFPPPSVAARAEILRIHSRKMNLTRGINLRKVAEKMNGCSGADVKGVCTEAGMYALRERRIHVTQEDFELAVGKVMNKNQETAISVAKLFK

According to article PMC9922823:

B1: Rpn2 (protein, UniProt P32565 1-945)
chain: MSLTTAAPLLALLRENQDSVKTYALESINNVVDQLWSEISNELPDIEALYDDDTFSDREMAALIASKVYYNLGEYESAVKYALAAKDRFDIDEKSQFVETIVSKSIEMYVQEASKQYTKDEQFYTKDIIDPKLTSIFERMIEKCLKASELKLALGIALEGYRLDIIESALKSKLDQDSTSENVKIINYLLTLAITTVTNSKFRSSILRKSFDFLMNMPNCDYLTLNKVVVNLNDAGLALQLFKKLKEENDEGLSAQIAFDLVSSASQQLLEILVTELTAQGYDPALLNILSGLPTCDYYNTFLLNNKNIDIGLLNKSKSSLDGKFSLFHTAVSVANGFMHAGTTDNSFIKANLPWLGKAQNWAKFTATASLGVIHKGNLLEGKKVMAPYLPGSRASSRFIKGGSLYGLGLIYAGFGRDTTDYLKNIIVENSGTSGDEDVDVLLHGASLGIGLAAMGSANIEVYEALKEVLYNDSATSGEAAALGMGLCMLGTGKPEAIHDMFTYSQETQHGNITRGLAVGLALINYGRQELADDLITKMLASDESLLRYGGAFTIALAYAGTGNNSAVKRLLHVAVSDSNDDVRRAAVIALGFVLLRDYTTVPRIVQLLSKSHNAHVRCGTAFALGIACAGKGLQSAIDVLDPLTKDPVDFVRQAAMIALSMILIQQTEKLNPQVADINKNFLSVITNKHQEGLAKFGACVAQGIMNAGGRNVTIQLENADTGTLDTKSVVGLVMFSQFWYWFPLAHFLSLSFTPTTVIGIRGSDQAIPKFQMNCYAKEDAFSYPRMYEEASGKEVEKVATAVLSTTARAKARAKKTKKEKGPNEEEKKKEHEEKEKERETNKKGIKETKENDEEFYKNKYSSKPYKVDNMTRILPQQSRYISFIKDDRFVPVRKFKGNNGVVVLRDREPKEPVALIETVRQMKDVNAPLPTPFKVDDNVDFPSA
B2: Rpn13 (protein, UniProt O13563 1-156)
chain: MSMSSTVIKFRAGVCEYNEDSRLCTPIPVQGEIEIKPNEEEELGFWDFEWRPTEKPVGRELDPISLILIPGETMWVPIKSSKSGRIFALVFSSNERYFFWLQEKNSGNLPLNELSAKDKEIYNKMIGVLNNSSESDEEESNDEKQKAQDVDVSMQD

Assays:
[1] = target: T1, His6-tagged Rpt3 (S. cerevisiae) (UniProt P33298); experiment: affinity purification with mass spectrometry; His6-Rpt3 as bait from lysate of E. coli coexpressing nine base subunits and four chaperones; TALON resin, 300 mM NaCl, pH 7.0, 0.2% Triton X-100, 150 mM imidazole elution, 1 mM ATP; band cut from 5% native-PAGE for proteomics
T1 sequence: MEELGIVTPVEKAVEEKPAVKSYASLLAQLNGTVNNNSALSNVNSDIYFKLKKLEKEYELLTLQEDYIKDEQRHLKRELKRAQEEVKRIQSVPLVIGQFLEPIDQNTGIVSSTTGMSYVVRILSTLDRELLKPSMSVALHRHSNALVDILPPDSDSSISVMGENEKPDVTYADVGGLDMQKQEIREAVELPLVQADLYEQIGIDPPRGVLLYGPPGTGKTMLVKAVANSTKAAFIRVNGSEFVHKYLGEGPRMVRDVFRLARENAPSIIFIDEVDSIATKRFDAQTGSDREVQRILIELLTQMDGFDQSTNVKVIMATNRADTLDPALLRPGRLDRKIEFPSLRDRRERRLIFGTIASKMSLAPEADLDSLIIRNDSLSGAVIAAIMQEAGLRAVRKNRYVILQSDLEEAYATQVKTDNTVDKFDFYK

[2] = target: Rpt6 harboring a GFP-3xFLAG tag (S. cerevisiae) (UniProt Q01939); experiment: affinity purification with mass spectrometry; Rpt6 with GFP-3xFLAG tag as bait from yeast lysate; anti-FLAG M2-agarose, proteasome buffer pH 7.5, 150 mM NaCl, 1 mM ATP, FLAG peptide elution; 5% native-PAGE, proteomics of the complexes

Binder	binding [1]	binding [2]
B1	binds	binds
B2	binds	binds

These are yes or no findings as the source states them, for the method shown. In cells and extracts the contact can be indirect. Here binding means that the protein was enriched with, or labelled near, the bait; the list need not be complete. For some of these results: Sequences can lack the tags named with a protein.
